# Some results were stated once for a whole list of compounds, not compound by compound.
# System: PC-3, SGC-7901 and A-549 tumor cells
# Experiment: tumor cell proliferation inhibition test, summary over the three cell lines
# Format: cell-based, human
# Method: The compounds of the present invention were subjected to tumor cell proliferation inhibition test, and the conventional MTT method was used as the test method.
# Cell lines selected are human prostate cancer cell line (PC-3), human gastric adenocarcinoma cell line (SGC-7901), and human lung cancer cell (A-549). The culture medium was DMEM+15% NBS+double antibody.
# The exponential phase cells were digested and counted and seeded in 96-well plates at a density of 2×10^4/mL at 100 μl per well. After 24 hours of incubation, the cells to be tested were treated with 0.1, 1, 10, 20, 40, 60, 80, 100 μmol/L of the compounds. Each experimental group had 5 wells in each concentration, and the culture medium containing 0.4% DMSO was used as control. After 48 hours, the supernatant was discarded, and 100 μl of MTT ((2-(4,5-dimethyl-2-thiazolyl)-3,5-diphenyl-2H-tetrazole hydrobromide) (1 mg/mL) was added to each well. After another 4 hours, the supernatant was discarded, and 100 μL of DMSO was added to each well. After mixing, the absorbance was measured at 570 nm using a microplate reader. An IC50 calculation software was used to determine the half inhibitory concentration (IC50).
row,SMILES,antitumor activities in the tested three cell lines
1,CCN1C[C@]2(OC(=O)c3ccccc3NC(=O)/C=C(\C)c3ccncc3)CC[C@H](OC)[C@]34C1[C@@H](C[C@H]23)[C@@]1(O)C[C@H](OC)C[C@H]2C[C@@H]4[C@]1(O)[C@H]2OC [Compound 9],different degrees of antitumor activities
2,CCN1C[C@]2(OC(=O)c3ccccc3NC(=O)/C(C)=C/c3ccncc3)CC[C@H](OC)[C@]34C1[C@@H](C[C@H]23)[C@@]1(O)C[C@H](OC)C[C@H]2C[C@@H]4[C@]1(O)[C@H]2OC [Compound 10],different degrees of antitumor activities
3,CCN1C[C@]2(OC(=O)c3ccccc3NC(=O)/C=C/c3cc(C)nc(C)c3)CC[C@H](OC)[C@]34C1[C@@H](C[C@H]23)[C@@]1(O)C[C@H](OC)C[C@H]2C[C@@H]4[C@]1(O)[C@H]2OC [Compound 13],different degrees of antitumor activities
4,CCN1C[C@]2(OC(=O)c3ccccc3NC(=O)/C(C)=C/c3cccc(C)n3)CC[C@H](OC)[C@]34C1[C@@H](C[C@H]23)[C@@]1(O)C[C@H](OC)C[C@H]2C[C@@H]4[C@]1(O)[C@H]2OC [Compound 18],different degrees of antitumor activities
5,CCc1cc(/C=C/C(=O)Nc2ccccc2C(=O)O[C@@]23CC[C@H](OC)[C@]45C([C@@H](C[C@H]24)[C@@]2(O)C[C@H](OC)C[C@H]4C[C@@H]5[C@]2(O)[C@H]4OC)N(CC)C3)ccn1 [Compound 12],different degrees of antitumor activities
6,CCN1C[C@]2(OC(=O)c3ccccc3NC(=O)/C=C(\C)c3cccnc3)CC[C@H](OC)[C@]34C1[C@@H](C[C@H]23)[C@@]1(O)C[C@H](OC)C[C@H]2C[C@@H]4[C@]1(O)[C@H]2OC [Compound 4],different degrees of antitumor activities
7,CCN1C[C@]2(OC(=O)c3ccccc3NC(=O)/C=C/c3cc(C)cc(C)n3)CC[C@H](OC)[C@]34C1[C@@H](C[C@H]23)[C@@]1(O)C[C@H](OC)C[C@H]2C[C@@H]4[C@]1(O)[C@H]2OC [Compound 16],different degrees of antitumor activities
8,CCN1C[C@]2(OC(=O)c3ccccc3NC(=O)/C=C/c3cccnc3)CC[C@H](OC)[C@]34C1[C@@H](C[C@H]23)[C@@]1(O)C[C@H](OC)C[C@H]2C[C@@H]4[C@]1(O)[C@H]2OC [Compound 2],different degrees of antitumor activities
9,CCN1C[C@]2(OC(=O)c3ccccc3NC(=O)/C=C/c3cccc(C)n3)CC[C@H](OC)[C@]34C1[C@@H](C[C@H]23)[C@@]1(O)C[C@H](OC)C[C@H]2C[C@@H]4[C@]1(O)[C@H]2OC [Compound 19],different degrees of antitumor activities
10,CCN1C[C@]2(OC(=O)c3ccccc3NC(=O)/C=C/c3ccc(C)nc3)CC[C@H](OC)[C@]34C1[C@@H](C[C@H]23)[C@@]1(O)C[C@H](OC)C[C@H]2C[C@@H]4[C@]1(O)[C@H]2OC [Compound 7],different degrees of antitumor activities
11,CCN1C[C@]2(OC(=O)c3ccccc3NC(=O)/C=C/c3ccccn3)CC[C@H](OC)[C@]34C1[C@@H](C[C@H]23)[C@@]1(O)C[C@H](OC)C[C@H]2C[C@@H]4[C@]1(O)[C@H]2OC [Compound 3],different degrees of antitumor activities
12,CCN1C[C@]2(OC(=O)c3ccccc3NC(=O)/C=C/c3cc(C(C)C)ccn3)CC[C@H](OC)[C@]34C1[C@@H](C[C@H]23)[C@@]1(O)C[C@H](OC)C[C@H]2C[C@@H]4[C@]1(O)[C@H]2OC [Compound 17],different degrees of antitumor activities
13,CCN1C[C@]2(OC(=O)c3ccccc3NC(=O)/C=C/c3ccnc(C)c3)CC[C@H](OC)[C@]34C1[C@@H](C[C@H]23)[C@@]1(O)C[C@H](OC)C[C@H]2C[C@@H]4[C@]1(O)[C@H]2OC [Compound 11],different degrees of antitumor activities
14,CCN1C[C@]2(OC(=O)c3ccccc3NC(=O)/C=C/c3ccncc3)CC[C@H](OC)[C@]34C1[C@@H](C[C@H]23)[C@@]1(O)C[C@H](OC)C[C@H]2C[C@@H]4[C@]1(O)[C@H]2OC [Compound 1],different degrees of antitumor activities
15,CCc1ccnc(/C=C/C(=O)Nc2ccccc2C(=O)O[C@@]23CC[C@H](OC)[C@]45C([C@@H](C[C@H]24)[C@@]2(O)C[C@H](OC)C[C@H]4C[C@@H]5[C@]2(O)[C@H]4OC)N(CC)C3)c1 [Compound 15],different degrees of antitumor activities
16,CCN1C[C@]2(OC(=O)c3ccccc3NC(=O)/C=C/c3cc(C)ccn3)CC[C@H](OC)[C@]34C1[C@@H](C[C@H]23)[C@@]1(O)C[C@H](OC)C[C@H]2C[C@@H]4[C@]1(O)[C@H]2OC [Compound 14],different degrees of antitumor activities
17,CCN1C[C@]2(OC(=O)c3ccccc3NC(=O)/C=C/c3cncc(C)c3)CC[C@H](OC)[C@]34C1[C@@H](C[C@H]23)[C@@]1(O)C[C@H](OC)C[C@H]2C[C@@H]4[C@]1(O)[C@H]2OC [Compound 5],different degrees of antitumor activities
18,CCN1C[C@]2(OC(=O)c3ccccc3NC(=O)/C=C/c3cnccc3C)CC[C@H](OC)[C@]34C1[C@@H](C[C@H]23)[C@@]1(O)C[C@H](OC)C[C@H]2C[C@@H]4[C@]1(O)[C@H]2OC [Compound 6],different degrees of antitumor activities
19,CCc1cncc(/C=C/C(=O)Nc2ccccc2C(=O)O[C@@]23CC[C@H](OC)[C@]45C([C@@H](C[C@H]24)[C@@]2(O)C[C@H](OC)C[C@H]4C[C@@H]5[C@]2(O)[C@H]4OC)N(CC)C3)c1 [Compound 8],different degrees of antitumor activities

# Source: patent publication US10100036B2, “Lappaconitine aza-cinnamic acid derivatives with anti-tumor activities and a method of preparing the same” (priority 2016, dated 2018)
